# In all, about 220,000 compounds went through this assay and about 770 (0.35%) were called active. Inconclusive means that the source gave no clear call. Such entries were picked first, then a sample of the others. No stated cut-off is given here; in the data, active means binding response below about 49% or above about 150%; inconclusive means no clear call, values can overlap the other calls; inactive means in between.
# By UniProt entry, the sequences of proteins in these tests, tags left out.
# UniProt P09471, whole entry, looked up: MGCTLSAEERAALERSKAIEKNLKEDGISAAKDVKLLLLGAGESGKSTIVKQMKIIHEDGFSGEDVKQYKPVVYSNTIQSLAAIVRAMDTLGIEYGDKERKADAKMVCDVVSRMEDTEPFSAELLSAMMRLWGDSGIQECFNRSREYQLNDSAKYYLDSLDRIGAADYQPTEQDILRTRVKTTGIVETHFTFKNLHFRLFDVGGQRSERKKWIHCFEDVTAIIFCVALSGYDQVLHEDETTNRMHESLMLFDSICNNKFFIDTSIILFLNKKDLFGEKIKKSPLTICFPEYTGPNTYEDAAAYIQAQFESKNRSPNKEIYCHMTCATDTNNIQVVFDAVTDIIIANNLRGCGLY
# Target: Guanine nucleotide-binding protein G(o) subunit alpha (Homo sapiens) (UniProt P09471)
# Assay: RGS7-Galphao binding modulators, primary screen, biochemical, multiplexed bead flow cytometry (AID 1439);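 further: fluorescent Galphao held in activated GDP-AlF4 state binding bead-coupled RGS7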
# Conditions: at 10 µM, actives lie on both sides
row,Compound,binding response (% of control)
1,Cc1cc(OCC(=O)NC2CCN(C)CC2)ccc1[N+](=O)[O-],inconclusive: 86.6%
2,CC(C)NC(=O)C(=O)NCc1ccccn1,inconclusive: 83.3%
3,COc1cc(C2c3cc4c(cc3C(OC3OC5COC(c6cccs6)OC5C(O)C3O)C3COC(=O)C23)OCO4)cc(OC)c1O (stereo not drawn),inconclusive: 119%
4,O=C1Nc2ccc3sc4ccccc4c3c2C1=O,inconclusive: 90.5%
5,Cc1ccc(-n2c(C)nnc2SCC(=O)NNC(=O)c2ccco2)cc1,inactive: 106%
6,O=[N+]([O-])c1cc2cccnc2c2ncccc12,inconclusive: 90.1%
7,O=C(CSc1cn(Cc2ccccc2)c2ccccc12)NCc1ccc(F)cc1,inactive: 101%
8,Cc1onc(-c2c(Cl)cccc2Cl)c1C(=O)c1c[nH]c(C(=O)NCC2CCCO2)c1 (stereo not drawn),inconclusive: 93.4%
9,CC(Oc1cccc(F)c1)c1ccnc2nc(/N=C/N(C)C)nn12 (stereo not drawn),inactive: 99.9%
10,Cc1nc2ccccc2n1CC(=O)NC1CCCCCC1,inconclusive: 110%
11,O=C(CNC(=O)/C(=C\c1ccccc1)NC(=O)c1ccc(Br)cc1)OCc1ccccc1,inactive: 95.9%
12,CC(=O)c1ccc(-c2ccc([C@H]3[C@@H]4C=CCC[C@@]4(C)C(=O)N3Cc3ccccc3)c(F)c2)cc1,inconclusive: 96.5%
13,O=c1c2ccccc2nnn1CSc1ccccc1,inactive: 101%
14,CCOC(=O)c1cc(-c2ccc(Cl)s2)[nH]n1,inconclusive: 27.7%
15,COc1ccc([N+](=O)[O-])cc1NC(=O)Cc1ccc(C)cc1,inactive: 78.6%
16,COc1ccc([N+](=O)[O-])cc1NC(=O)c1cn(-c2ccc(C)c(C)c2)c(=O)c2ccccc12,inactive: 101%
17,CSCC[C@H](NC(=O)C1CCN(S(=O)(=O)c2ccc(C)cc2)CC1)C(=O)NC1CCS(=O)(=O)C1 (stereo partly drawn),inactive: 98.4%
18,Cn1c(=O)[nH]c(=O)c2c1nc(N1CCOCC1)n2CCc1ccccc1,inactive: 87.9%
19,O=C(N/N=C/c1cc([N+](=O)[O-])ccc1O)c1cc(-c2ccccc2)nc2ccccc12,active: 42.5%
20,COc1ccccc1CNc1ncnc2c1cnn2-c1ccccc1,inconclusive: 103%
21,COc1ccccc1-n1cc(CN2CCCC(CO)(Cc3cccc(Cl)c3)C2)cn1 (stereo not drawn),inactive: 100%
22,O=C(O)Cn1ccc2ccccc21,inconclusive: 126%
23,O=C1N=C(N2CCCC2)S/C1=C\C=C\c1ccccc1,inconclusive: 100%
24,Cc1nnc(NC(=O)CSc2ncc(-c3ccccc3)[nH]2)s1,inconclusive: 102%

# Reformatted: results already given
row | Compound | binding response (% of control)
6 | O=[N+]([O-])c1cc2cccnc2c2ncccc12 | inconclusive: 90.1%
16 | COc1ccc([N+](=O)[O-])cc1NC(=O)c1cn(-c2ccc(C)c(C)c2)c(=O)c2ccccc12 | inactive: 101%

# Later entries:

row,Compound,binding response (% of control)
1,O=C(NC1CC2CCCC(C1)N2Cc1ccccc1)C1CCCCC1 (stereo not drawn),inconclusive: 114%
2,Cc1cc(C(=O)N2CCN(C(c3ccccc3)c3ccccc3)CC2)no1,inactive: 117%
3,CN(C)CCCN(C(=O)c1ccco1)c1nc2ccc(F)cc2s1,inconclusive: 98.5%
4,Clc1ccc(-c2nc(-c3cnccn3)no2)cc1,inconclusive: 107%
5,O=C(Cc1cccs1)N1CCN(c2ccc([N+](=O)[O-])cc2)CC1,inactive: 93.7%
6,S=C(NCCCN1CCOCC1)N1CCOCC1,inconclusive: 80%
7,CN(C)c1ccc(/C=N/NC(=O)CSc2ccccn2)cc1,inconclusive: 97.8%
8,O=C(O)c1cc([N+](=O)[O-])cc2c1nnn2O,inactive: 106%
9,Cc1ccc(NC(=O)COC(=O)/C=C/c2ccccc2)cc1S(=O)(=O)N1CCOCC1,inconclusive: 92.2%
10,Cc1[nH][nH]c(=O)c1C(c1ccc(N(C)C)c(Br)c1)c1c(C)[nH][nH]c1=O,inconclusive: 100%
11,N=C1C(c2ccccc2)=C(O)CN1CCCO,inactive: 99.9%
12,CCOC(=O)c1c(-c2ccccc2)csc1NC(=O)/C(C#N)=C/c1ccc(OC)c(OC)c1,inactive: 103%
13,CCC(NC(=O)Nc1cc(C)on1)(C(F)(F)F)C(F)(F)F,inconclusive: 127%
14,O=c1c(-c2n[nH]c(=S)n2-c2ccccc2)cccn1Cc1cccc(Cl)c1,inconclusive: 102%
15,Cn1c(-c2ccc3ccccc3n2)[n+](C)c2ccccc21,inconclusive: 114%
16,Cc1nc(=O)c(-c2ccccc2)c(C)n1-c1ccc(Br)cc1,inconclusive: 122%
17,O=C(NNc1cc(N2CCOCC2)nc(N2CCOCC2)n1)c1ccc(Cl)cc1Cl,active: 12.2%
18,O=C(O)C1CSC(c2ccc3c(c2)OCO3)N1 (stereo not drawn),inconclusive: 73.5%
19,O=C(NC1=NCCS1)c1sc2cc(Cl)cc(Cl)c2c1Cl,inactive: 105%
20,c1ccc2[nH]c(CSc3ncnc4c3oc3ccccc34)nc2c1,inactive: 103%
21,COc1cc(C=O)ccc1OCC(=O)N1CCCC1,inactive: 92.2%
22,COc1ccc(-c2nn(C)c(=O)[nH]2)cc1,inconclusive: 113%
23,CC(=O)c1sc(C(C)(C)C)cc1NC(=O)/C=C/C(=O)O,inconclusive: 98.2%
24,CC(=O)Nc1nnc(Cc2c[nH]c3ccccc23)s1,inactive: 97.6%

row,Compound,binding response (% of control)
1,CCOC(=O)C1CCCN(C(=O)/C=C/c2ccc(Cl)cc2)C1 (stereo not drawn),inactive: 106%
2,Nc1ccccc1SC(C[N+](=O)[O-])c1ccccc1 (stereo not drawn),inconclusive: 62.1%
3,Cc1ccc(C2=C(c3ccc([N+](=O)[O-])cc3)C(=O)OC2)cc1C,inconclusive: 74.1%
4,COc1ccc(NC(=O)C2CCC(CNS(=O)(=O)c3cccs3)CC2)cc1 (stereo not drawn),inactive: 97.8%
5,CC(/C=N/NC(=O)c1ccccc1F)c1ccccc1 (stereo not drawn),inconclusive: 147%
6,O=C(O)CCCN=CC1=C(O)CNC1=O,inactive: 104%
7,CCn1c(C)cc(O)cc1=O,inconclusive: 102%
8,Cc1ccc2cc3cc(C(=O)N4CCN(Cc5ccccc5)CC4)sc3nc2c1,active: 162% [activator]
9,Cn1c(CC(=O)Nc2ccccc2)c(Sc2ccccc2)c2ccccc21,inactive: 102%
10,O=C(Nc1nc(-c2ccc(F)c(F)c2)cs1)c1cnccn1,inconclusive: 81.5%
11,O=C(Nc1ccc(Cl)cc1)Nc1nnc(/C=C/c2ccccc2)s1,inconclusive: 39.4%
12,O=c1[nH]c2ccccc2n2cnnc12,inconclusive: 118%
13,Cc1ccc(C(=O)NCCc2ccc(S(N)(=O)=O)cc2)o1,inactive: 102%
14,S=c1[nH]nc(-c2ccc(Cl)cc2)n1-c1cccnc1,inconclusive: 62.6%
15,CCOC(=O)c1sc(NC(=O)CSC(=S)N2CCN(C)CC2)nc1C,inconclusive: 102%
16,Cn1ccnc1C(=O)c1ccc(S(=O)(=O)N2CCCC2)cc1,inconclusive: 91.9%
17,COc1ccc(C(=O)Nn2cnnc2)cc1OC,inconclusive: 108%
18,CCOC(=O)c1cc(C#N)c(N2CCN(c3ccccn3)CC2)nc1-c1ccccc1,inconclusive: 69.7%
19,O=C(c1cc(-c2ccccc2)n[nH]1)N1CCc2c([nH]c3ccccc23)C1c1ccccn1 (stereo not drawn),inactive: 90%
20,Cc1ccc2nc(NC(=O)C3CCCN3C(=O)OC(C)(C)C)sc2c1 (stereo not drawn),inactive: 93.6%
21,O=C(O)C(NS(=O)(=O)c1cccc2nsnc12)c1ccccc1 (stereo not drawn),inconclusive: 89.5%
22,O=C(O)c1ccc(-c2cccc([N+](=O)[O-])c2)o1,inconclusive: 113%
23,COc1ccc(CC(=O)n2[nH]c(=O)cc(C)c2=O)cc1OC,inconclusive: 108%
24,CC(=O)Nc1ccc(NC(=O)CCNS(=O)(=O)c2cccc3nsnc23)cc1,inconclusive: 81.1%

row,Compound,binding response (% of control)
1,CCOc1ccc2c(c1)C(c1ccc(C)o1)=NNC(c1ccncc1)=N2,inconclusive: 85.3%
2,CCS(=O)(=O)N1CCC(C(=O)Nc2cc([N+](=O)[O-])ccc2C)CC1,inconclusive: -54.5%
3,Nc1nc(-c2ccc(F)cc2)cs1,inconclusive: 112%
4,CC(=O)N(C)c1ccc(NS(=O)(=O)c2cc(Cl)ccc2Cl)cc1,inactive: 98%
5,CC(C)(C)c1ccc2c(c1)OC(C(=O)N/N=C\c1ccncc1)CO2 (stereo not drawn),inconclusive: 144%
6,COC(C[C@H]1O[C@@H]1[C@@H](O)[C@H](C)OCc1ccccc1)OC,inconclusive: 101%
7,CCc1cccc(N(C(=O)c2csnn2)C(C(=O)NC(C)(C)C)c2ccccn2)c1 (stereo not drawn),inactive: 101%
8,CC(C)C(=O)N1CCC2(CC1)Oc1ccc(F)cc1C(=O)C21CC(c2cccnc2)=NO1 (stereo not drawn),inconclusive: 102%
9,CC(=O)c1cccc(Nc2c([N+](=O)[O-])c(=O)oc3ccccc23)c1,inconclusive: 88%
10,COc1ccc(C(C)=O)cc1Cn1nc(C)c([N+](=O)[O-])c1C,inconclusive: 109%
11,Cc1ccc(NC(=S)NC(=O)c2sc3ccccc3c2Cl)c(C(=O)O)c1,inconclusive: 115%
12,COc1ccc(C(=O)C2CCCN(C(=O)c3ccc4cc[nH]c4c3)C2)c(C)c1 (stereo not drawn),inactive: 101%
13,C/C(N)=C(/C#N)C(=O)CSc1n[nH]c(-c2cccs2)n1,inconclusive: 99.8%
14,COc1ccccc1C1CCN(C(=O)c2cnn(-c3ccccc3)c2C)CC1,inconclusive: 233%
15,COc1ccccc1NC(=O)c1ccc(NS(=O)(=O)c2ccc(F)c(Cl)c2)cc1,inactive: 99.6%
16,CC(=O)Oc1c(C)cc(Cl)cc1C(=O)Nc1ccc([N+](=O)[O-])cc1Cl,inactive: 104%
17,Cc1ccsc1C(=O)Nc1nc2ccccc2[nH]1,inconclusive: 153%
18,Cc1c(C(=O)O/N=C(\N)c2ccccn2)cccc1[N+](=O)[O-],inconclusive: 95.2%
19,COC(=O)c1ccc(Cn2cc(C(F)(F)F)ccc2=O)cc1,inconclusive: 106%
20,CSc1ccccc1C(=O)NCc1ccc(F)cc1,inconclusive: 83.8%
21,O=C(Nc1ccc(S(=O)(=O)Nc2nccs2)cc1)c1cnc(Cl)c(Cl)c1,inconclusive: 95.3%

# Sorted by number of heavy atoms (smallest number first): 3 of the compounds above
row,Compound,binding response (% of control)
19,COC(=O)c1ccc(Cn2cc(C(F)(F)F)ccc2=O)cc1,inconclusive: 106%
12,COc1ccc(C(=O)C2CCCN(C(=O)c3ccc4cc[nH]c4c3)C2)c(C)c1 (stereo not drawn),inactive: 101%
15,COc1ccccc1NC(=O)c1ccc(NS(=O)(=O)c2ccc(F)c(Cl)c2)cc1,inactive: 99.6%
